One substance from publication PMC4299064 can be followed below.

Sequences of proteins named here, by UniProt entry; tags and fusion partners are left off. Residues count along the entry.
UniProt P02701, residues 25-152: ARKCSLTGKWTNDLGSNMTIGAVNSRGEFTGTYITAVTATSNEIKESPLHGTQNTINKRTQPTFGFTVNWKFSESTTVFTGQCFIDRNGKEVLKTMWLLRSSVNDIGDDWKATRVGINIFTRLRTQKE

No constants are given. Whether binding was seen depends on the method and setting.

This test addresses T1, LHPQF conjugated BSA.
T1 sequence (peptide): LHPQF
Nature of the test: oblique-incidence reflectivity difference (OI-RD); line-shaped microarray printed at 0.5 mg/mL in 1x PBS on epoxy-coated glass, washed, blocked with 0.5 mg/mL BSA for 10 min; 83 nM streptavidin or avidin added in 1x PBS with stirring; total internal reflection prism and photodiode array; curves compensated by subtracting the substrate signal; both purified.

On to avidin (from UniProt P02701 25-152), for which the binding entry is reported as “no binding (tested: 83 nM)”.
